PubChem BioAssay AID1259405, NCATS, 2018

- Assay: 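Silenced genes that increase secreted GFP made by CHO cells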 (primary screen)
- Cells: Chinese hamster CHO-K1 ovary cells with stable secreted eGFP expression
- Reagent: single siRNA against mouse genes, 0.8 pmol siRNA per well (2 µl of 400 nM stock)
- Duration: 3 days
- Detection: 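Per-well intracellular GFP measured by laser scanning cytometry, plus viability from ATP luminescence, each relative to plate median of non-targeting control wells, in %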
- Direction: GFP, % of control: higher = more GFP per well, higher productivity; viability (ATP), % of control: higher = more viable cells (more ATP)
- Call rule: 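a knock-down is called active if GFP reaches 120% or more of non-targeting control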
The deposit covers about 50,000 reagents; shown is an unselected part. About 4,000 of them (8%) count as active. 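Mouse siRNA library applied to hamster cells; one well for each siRNA.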 Reagents against one gene are numbered here.

Haspin #1 | GFP, % of control: 26.2; viability (ATP), % of control: 23.3; Outcome: inactive
Haspin #2 | GFP, % of control: 59.1; viability (ATP), % of control: 72; Outcome: inactive
Gadd45a #1 | GFP, % of control: 69.9; viability (ATP), % of control: 86.4; Outcome: inactive
Gadd45a #2 | GFP, % of control: 97.7; viability (ATP), % of control: 60.2; Outcome: inactive
Gadd45a #3 | GFP, % of control: 87.2; viability (ATP), % of control: 85.3; Outcome: inactive
Cpeb1 #1 | GFP, % of control: 78; viability (ATP), % of control: 87.8; Outcome: inactive
Cpeb1 #2 | GFP, % of control: 47.3; viability (ATP), % of control: 61.8; Outcome: inactive
Cpeb1 #3 | GFP, % of control: 67; viability (ATP), % of control: 64.5; Outcome: inactive
Morn5 #1 | GFP, % of control: 84.7; viability (ATP), % of control: 88.5; Outcome: inactive
Morn5 #2 | GFP, % of control: 60.3; viability (ATP), % of control: 60.7; Outcome: inactive
Morn5 #3 | GFP, % of control: 109; viability (ATP), % of control: 93; Outcome: inactive
Rgs6 #1 | GFP, % of control: 129; viability (ATP), % of control: 90.5; Outcome: active
Rgs6 #2 | GFP, % of control: 106; viability (ATP), % of control: 110; Outcome: inactive
Rgs6 #3 | GFP, % of control: 63.2; viability (ATP), % of control: 70.6; Outcome: inactive
Zfp445 #1 | GFP, % of control: 36.3; viability (ATP), % of control: 66.1; Outcome: inactive
Zfp445 #2 | GFP, % of control: 60.7; viability (ATP), % of control: 48.9; Outcome: inactive
S100g #1 | GFP, % of control: 101; viability (ATP), % of control: 142; Outcome: inactive
S100g #2 | GFP, % of control: 70; viability (ATP), % of control: 69.8; Outcome: inactive
Srp19 #1 | GFP, % of control: 71.1; viability (ATP), % of control: 68.4; Outcome: inactive
Srp19 #2 | GFP, % of control: 51.9; viability (ATP), % of control: 34.8; Outcome: inactive
Srp19 #3 | GFP, % of control: 87; viability (ATP), % of control: 44.6; Outcome: inactive
Agps #1 | GFP, % of control: 200; viability (ATP), % of control: 150; Outcome: active
Agps #2 | GFP, % of control: 65.9; viability (ATP), % of control: 124; Outcome: inactive
Agps #3 | GFP, % of control: 112; viability (ATP), % of control: 123; Outcome: inactive
Hsd17b6 #1 | GFP, % of control: 87.8; viability (ATP), % of control: 98.5; Outcome: inactive
Hsd17b6 #2 | GFP, % of control: 145; viability (ATP), % of control: 83.2; Outcome: active
Hsd17b6 #3 | GFP, % of control: 111; viability (ATP), % of control: 100; Outcome: inactive
Plpp7 #1 | GFP, % of control: 127; viability (ATP), % of control: 61.2; Outcome: active
Plpp7 #2 | GFP, % of control: 58.9; viability (ATP), % of control: 90.5; Outcome: inactive
Plpp7 #3 | GFP, % of control: 50.3; viability (ATP), % of control: 58.6; Outcome: inactive
Rit2 #1 | GFP, % of control: 122; viability (ATP), % of control: 128; Outcome: active
Rit2 #2 | GFP, % of control: 103; viability (ATP), % of control: 81; Outcome: inactive
Rit2 #3 | GFP, % of control: 71; viability (ATP), % of control: 64.2; Outcome: inactive
Adam4 #1 | GFP, % of control: 92.3; viability (ATP), % of control: 90.2; Outcome: inactive
Adam4 #2 | GFP, % of control: 45.6; viability (ATP), % of control: 61.5; Outcome: inactive
Adam4 #3 | GFP, % of control: 65.7; viability (ATP), % of control: 81.1; Outcome: inactive
Gfra3 #1 | GFP, % of control: 79.9; viability (ATP), % of control: 100; Outcome: inactive
Gfra3 #2 | GFP, % of control: 37.8; viability (ATP), % of control: 70.9; Outcome: inactive
Rtca #1 | GFP, % of control: 68.5; viability (ATP), % of control: 80.9; Outcome: inactive
Rtca #2 | GFP, % of control: 88.1; viability (ATP), % of control: 77; Outcome: inactive
Rtca #3 | GFP, % of control: 60.1; viability (ATP), % of control: 69.1; Outcome: inactive

Not a retest: entries from further up.
Adam4 #2 | GFP, % of control: 45.6; viability (ATP), % of control: 61.5; Outcome: inactive
Adam4 #3 | GFP, % of control: 65.7; viability (ATP), % of control: 81.1; Outcome: inactive
Gfra3 #1 | GFP, % of control: 79.9; viability (ATP), % of control: 100; Outcome: inactive
Gfra3 #2 | GFP, % of control: 37.8; viability (ATP), % of control: 70.9; Outcome: inactive
Rtca #1 | GFP, % of control: 68.5; viability (ATP), % of control: 80.9; Outcome: inactive
Rtca #2 | GFP, % of control: 88.1; viability (ATP), % of control: 77; Outcome: inactive
